experiment: Relative sweetness of raw materials and sweetener compositions (sugar = 1)

| SMILES | Relative Sweetness per g of raw material |
| --- | --- |
| C=C1C[C@@]23CC[C@H]4[C@@](C)(CCC[C@@]4(C)C(=O)O[C@@H]4O[C@H](CO)[C@@H](O)[C@H](O)[C@H]4O)[C@@H]2CC[C@]1(O[C@@H]1O[C@H](CO)[C@@H](O)[C@H](O[C@@H]2O[C@H](CO)[C@@H](O)[C@H](O)[C@H]2O)[C@H]1O[C@@H]1O[C@H](CO)[C@@H](O)[C@H](O)[C@H]1O)C3 [Rebaudioside A] | 200 |
| OC[C@H]1O[C@@](CO)(O[C@H]2O[C@H](CO)[C@@H](O)[C@H](O)[C@H]2O)[C@@H](O)[C@@H]1O [Comparative Example 1, Sugar] | 1 |
| O=C(CO)[C@H](O)[C@H](O)[C@H](O)CO [Comparative Example 3, D-psicose] | 0.56 |
| OC[C@@H](O)[C@@H](O)CO [Comparative Example 2, Erythritol] | 0.63 |

Source: patent US20160324201A1, “SWEETENER COMPOSITION FOR ALLEVIATING DIABETES, CONTAINING SLOWLY DIGESTIBLE INGREDIENT” (CJ CHEILJEDANG CORPORATION, priority 2011, published 2016)
